# Source: patent US20190365717A1, “TREATING PATHOLOGICAL CONDITIONS BY DIRECT AND INDIRECT TARGETING OF SIRPA-CD47 INTERACTION” (STICHTING HET NEDERLANDS KANKER INSTITUUT-ANTONI VAN …, priority 2017, published 2019)
# Tested on: CD47 in A375 melanoma cells
# Assay: One-dimensional isoelectric focusing of HA-tagged CD47 immunoprecipitates
# Assay type: cell-based, human
# Conditions: 10 μM SEN177 for 16 h
structure (smiles),measurement,setting,value
Cn1cnnc1C1CCN(c2ncccc2-c2ccc(F)nc2)CC1 [SEN177],pI of CD47 molecules isolated from QPCTL-knockout cells,A375 QPCTL-knockout cells,did not affect
same,pI of CD47 present in wild-type cells,A375 wild-type cells,increased
